Data published in paper PMC6848426 (Rice, 2019).
No constants are given. Whether binding was seen depends on the method and setting. A result given as binding can be weak or reduced; the word gives no strength. Sequences can lack the tags named with a protein. For some assays here: In cells and extracts the contact can be indirect.

By UniProt entry, the sequences of proteins in these tests, tags left out. Where a name states a change or a piece, a line headed by the entry shows the natural chain unless it says otherwise.
UniProt Q0JL44: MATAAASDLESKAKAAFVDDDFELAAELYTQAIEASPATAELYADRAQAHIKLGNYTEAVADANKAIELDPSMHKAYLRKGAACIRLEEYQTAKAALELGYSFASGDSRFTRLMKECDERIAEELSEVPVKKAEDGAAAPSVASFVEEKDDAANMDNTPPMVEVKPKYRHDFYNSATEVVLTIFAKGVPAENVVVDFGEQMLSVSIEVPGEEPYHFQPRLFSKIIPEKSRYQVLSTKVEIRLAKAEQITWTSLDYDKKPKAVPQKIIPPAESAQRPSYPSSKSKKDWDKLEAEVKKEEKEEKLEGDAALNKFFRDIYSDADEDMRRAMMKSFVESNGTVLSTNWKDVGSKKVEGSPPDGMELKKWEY

Key:
[1] = target: T1, NYFP-OsSAPK9 (rice (Oryza sativa L.)) (UniProt Q75V57); experiment: split reporter; BiFC in Agrobacterium-infiltrated N. benthamiana leaves, NYFP and CCFP fusions, confocal microscopy 48-72 h after infiltration
T1 sequence: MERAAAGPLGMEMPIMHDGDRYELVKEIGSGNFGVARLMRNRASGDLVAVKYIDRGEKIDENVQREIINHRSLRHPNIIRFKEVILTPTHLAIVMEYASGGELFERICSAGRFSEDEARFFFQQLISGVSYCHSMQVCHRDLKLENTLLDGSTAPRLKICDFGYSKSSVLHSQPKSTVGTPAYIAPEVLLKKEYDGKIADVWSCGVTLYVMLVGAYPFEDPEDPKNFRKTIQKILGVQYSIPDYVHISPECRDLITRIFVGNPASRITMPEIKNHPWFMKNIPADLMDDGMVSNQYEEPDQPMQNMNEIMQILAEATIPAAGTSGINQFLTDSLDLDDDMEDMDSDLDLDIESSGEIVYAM

[2] = target: T2, BD-OsSAPK9 (rice (Oryza sativa L.)) (UniProt Q75V57); experiment: two-hybrid
T2 sequence: T1 sequence

Row | Substance | binding [1] | binding [2]
1 | CCFP-OsHsp90 (from UniProt Q69QQ6) | binds | –
2 | ΔSGS of OsSGT1 (yeast two-hybrid) (from UniProt Q0JL44) (domain or fragment) | – | binds
